This passage reports binding results from paper PMC9312491.

The assay addresses T1, HA-APE2 (UniProt Q9UBZ4).
T1 sequence: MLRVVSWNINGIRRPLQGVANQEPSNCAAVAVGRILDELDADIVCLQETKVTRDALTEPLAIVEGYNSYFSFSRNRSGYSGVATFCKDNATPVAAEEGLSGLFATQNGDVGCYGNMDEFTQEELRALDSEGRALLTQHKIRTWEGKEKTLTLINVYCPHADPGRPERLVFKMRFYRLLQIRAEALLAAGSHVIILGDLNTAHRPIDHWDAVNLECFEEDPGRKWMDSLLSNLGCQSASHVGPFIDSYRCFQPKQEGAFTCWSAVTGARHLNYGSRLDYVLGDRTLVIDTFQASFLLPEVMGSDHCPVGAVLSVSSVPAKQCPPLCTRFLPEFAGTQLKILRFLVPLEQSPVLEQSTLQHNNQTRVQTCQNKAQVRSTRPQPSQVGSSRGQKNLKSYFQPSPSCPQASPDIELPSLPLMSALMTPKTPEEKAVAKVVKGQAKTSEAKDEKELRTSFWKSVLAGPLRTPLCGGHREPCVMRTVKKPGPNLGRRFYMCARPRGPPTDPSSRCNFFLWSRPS
The assay can be described thus: co-IP; lysate (M-PER) of transfected HEK293 cells, 48 h after transfection; HA-APE2 held on anti-HA magnetic beads, 30 °C for 30 min; partners found by Western blot. In general terms: In western blotting, separated proteins are transferred to a membrane and probed.

No constants are given. Whether binding was seen depends on the method and setting. In cells and extracts the contact can be indirect. Binding calls can cover weak binding; strength is not graded here. Where a sequence is shown, tags or fusion partners need not be part of it.

For Hsp70 (human (endogenous in HEK293)), the binding result is recorded as “binds”.
As for Hsp90 (human (endogenous in HEK293)), the binding result is “binds”.
